These are yes or no findings as the source states them, for the method shown.
Legend:
[1] = target: Aer-PAS-GVV (Aer 7–135 S28G A65V A99V, the Aer PAS triple mutant) (E. coli) (UniProt P50466); test: SEC-SAXS; about 100 μl at 4.5 to 5.5 mg/ml on a Superdex 75 Increase column in 50 mM HEPES pH 8.0, 150 mM KCl, 10 mM MgCl2; molecular weight from the SAXS-derived Porod volume; both purified
[2] = target: Aer-PAS-GVV (Aer 7–135 S28G A65V A99V, the Aer PAS triple mutant) (E. coli) (UniProt P50466); test: SEC; Superdex S75 preparatory column, after nickel–nitrilotriacetic acid elution; both purified

By UniProt entry, the sequences of proteins in these tests, tags left out. Where a name states a change or a piece, a line headed by the entry shows the natural chain unless it says otherwise.
UniProt P50466: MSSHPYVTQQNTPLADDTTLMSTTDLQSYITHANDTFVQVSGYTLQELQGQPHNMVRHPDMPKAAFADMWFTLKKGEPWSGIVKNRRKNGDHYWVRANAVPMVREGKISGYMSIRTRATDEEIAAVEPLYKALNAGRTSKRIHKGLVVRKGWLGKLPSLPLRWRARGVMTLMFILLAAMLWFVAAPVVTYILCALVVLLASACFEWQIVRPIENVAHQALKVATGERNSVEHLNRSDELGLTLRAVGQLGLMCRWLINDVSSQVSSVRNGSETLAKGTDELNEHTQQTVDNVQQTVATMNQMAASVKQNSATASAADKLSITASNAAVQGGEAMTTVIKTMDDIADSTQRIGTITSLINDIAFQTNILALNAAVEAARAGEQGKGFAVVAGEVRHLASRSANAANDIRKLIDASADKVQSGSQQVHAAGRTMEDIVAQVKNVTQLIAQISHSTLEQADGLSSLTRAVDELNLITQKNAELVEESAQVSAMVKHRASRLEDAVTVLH

binding [1]: no binding (tested: 4.5 to 5.5 mg/ml) | binding [2]: no binding
Substance: Aer-PAS-GVV (Aer 7–135 S28G A65V A99V, the Aer PAS triple mutant) (from UniProt P50466 7-135) (domain or fragment)
